Reference: PubChem BioAssay AID1259254 (NCATS, 2017)
In all, the deposit lists about 59,000 reagents; this is an unselected part. In the full data, about 1,550 (2.6%) got an active call. 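G2 share is only a proxy for re-replication; each gene was hit by three separate siRNAs, and active genes were retested.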 The numbers tell different reagents against one gene apart. Further read-outs or replicates are left out here. The record does not give: the amount of reagent.

- Test: 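Genome-wide screen for genes that prevent DNA re-replication in cancer cells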 (primary screen)
- System: human HCT116 colorectal cancer cells
- Reagent: single siRNA against human genes
- Timing: 3 days
- Read-out: 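Imaged Hoechst DNA stain sorts each cell into a cycle phase by DNA amount; per plate, G2 fraction set to 0% for non-targeting and 100% for GMNN siRNA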
- Scale: G2 robust z-score and G2 cells, % of GMNN control: higher = more G2 cells, more excess DNA replication
- Hit rule: 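Active siRNAs have a G2 robust z of 5 or more median absolute deviations over the median, which in these data means about 38% or higher of GMNN control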

| target | reagent no. | G2 robust z-score | G2 cells, % of GMNN control | activity call |
| --- | --- | --- | --- | --- |
| GGTLC1 | 1 | -0.233 | 1.33 | inactive |
| GGTLC1 | 2 | 4.68 | 35.9 | inactive |
| GGTLC1 | 3 | 1.32 | 12.3 | inactive |
| MARK2 | 1 | 0.057 | 3.37 | inactive |
| MARK2 | 2 | 2.05 | 17.4 | inactive |
| MARK2 | 3 | -0.77 | -2.45 | inactive |
| HOMER2 | 1 | -0.757 | -2.36 | inactive |
| HOMER2 | 2 | -1.08 | -4.61 | inactive |
| HOMER2 | 3 | 0.387 | 5.69 | inactive |
| POLR3C | 1 | 2.74 | 22.3 | inactive |
| POLR3C | 2 | -0.998 | -4.06 | inactive |
| POLR3C | 3 | 1.64 | 14.5 | inactive |
| LOC401123 (retired record) | 1 | 2.48 | 20.4 | inactive |
| LOC401123 (retired record) | 2 | 0.267 | 4.85 | inactive |
| LOC401123 (retired record) | 3 | -1.06 | -4.49 | inactive |
| CLEC3B | 1 | 0.179 | 4.23 | inactive |
| CLEC3B | 2 | 6.3 | 47.3 | active |
| CLEC3B | 3 | -0.0312 | 2.75 | inactive |
| CHRNG | 1 | 5.11 | 38.9 | active |
| CHRNG | 2 | 1.66 | 14.6 | inactive |
| CHRNG | 3 | 0.387 | 5.69 | inactive |
| PLAAT4 | 1 | -0.689 | -1.88 | inactive |
| PLAAT4 | 2 | -0.0704 | 2.47 | inactive |
| PLAAT4 | 3 | 5.21 | 39.6 | active |
| OR56A5 | 1 | 4.5 | 34.6 | inactive |
| OR56A5 | 2 | -0.00633 | 2.92 | inactive |
| OR56A5 | 3 | 10.3 | 75.3 | active |
| CDC123 | 1 | 2.49 | 20.5 | inactive |
| CDC123 | 2 | 0.798 | 8.58 | inactive |
| CDC123 | 3 | 0.155 | 4.06 | inactive |
| CCL23 | 1 | -0.273 | 1.05 | inactive |
| CCL23 | 2 | 1.52 | 13.7 | inactive |
| CCL23 | 3 | 3.3 | 26.2 | inactive |
| APCDD1L | 1 | 0.164 | 4.12 | inactive |
| APCDD1L | 2 | -1.27 | -5.97 | inactive |
| APCDD1L | 3 | -0.561 | -0.979 | inactive |
| LBX2 | 1 | -0.389 | 0.232 | inactive |
| LBX2 | 2 | 0.576 | 7.02 | inactive |
| LBX2 | 3 | -0.555 | -0.936 | inactive |
| HOXD9 | 1 | -1.17 | -5.29 | inactive |
| HOXD9 | 2 | -0.294 | 0.901 | inactive |
| HOXD9 | 3 | -0.612 | -1.34 | inactive |
| PTTG1 | 1 | 1.27 | 11.9 | inactive |
| PTTG1 | 2 | 0.249 | 4.72 | inactive |
| PTTG1 | 3 | 5.32 | 40.4 | active |
| TMIGD2 | 1 | -0.837 | -2.92 | inactive |
| TMIGD2 | 2 | -0.385 | 0.257 | inactive |
| TMIGD2 | 3 | 0.0892 | 3.6 | inactive |
| NMU | 1 | 1.72 | 15.1 | inactive |
| NMU | 2 | 0.391 | 5.72 | inactive |
| NMU | 3 | 0.754 | 8.27 | inactive |
| NDST3 | 1 | -0.441 | -0.133 | inactive |
| NDST3 | 2 | -0.392 | 0.209 | inactive |
| NDST3 | 3 | -0.316 | 0.746 | inactive |
| USP31 | 1 | 4.91 | 37.5 | inactive |
| USP31 | 2 | -0.414 | 0.0515 | inactive |
| USP31 | 3 | 4.34 | 33.5 | inactive |
| PITPNM2 | 1 | -0.544 | -0.861 | inactive |
| PITPNM2 | 2 | 0.0371 | 3.23 | inactive |
| PITPNM2 | 3 | -0.526 | -0.73 | inactive |
| TIMM23B | 1 | -0.543 | -0.854 | inactive |
| TIMM23B | 2 | -0.346 | 0.53 | inactive |
| TIMM23B | 3 | 0.438 | 6.05 | inactive |
| TIMM23B | 4 | 0.0402 | 3.25 | inactive |
| TIMM23B | 5 | 1.11 | 10.8 | inactive |
| TIMM23B | 6 | 0.304 | 5.11 | inactive |
| ZDHHC13 | 1 | -1.07 | -4.53 | inactive |
| ZDHHC13 | 2 | -0.684 | -1.85 | inactive |
| ZDHHC13 | 3 | -0.154 | 1.89 | inactive |

Not a retest: entries from further up.
| target | reagent no. | G2 robust z-score | G2 cells, % of GMNN control | activity call |
| --- | --- | --- | --- | --- |
| PTTG1 | 1 | 1.27 | 11.9 | inactive |
| PTTG1 | 2 | 0.249 | 4.72 | inactive |
| PTTG1 | 3 | 5.32 | 40.4 | active |
| TMIGD2 | 1 | -0.837 | -2.92 | inactive |
| TMIGD2 | 2 | -0.385 | 0.257 | inactive |
